# Measured values as given in patent publication US12133851B2, “Treatment of cholangiocarcinoma” (Janssen Pharmaceutica NV, priority 2018, dated 2024).
# Like-named read-outs stand apart in the source and are kept apart here.
# Columns and labels:
# [1] = system: patients with FGFR-aberrant cholangiocarcinoma
# [2] = system: advanced cholangiocarcinoma subjects with FGFR alterations
# Procedure: Tumor assessments: Conducted every 8 (±1) weeks up to 1 year from start of study drug, then every 12 (±1) weeks thereafter until the patient dies, or withdrawal of consent or conclusion of the study, whichever occurs first.
# ORR (complete response [CR] or partial response [PR]) and disease control rate (DCR) was calculated with 95% CI.
# PFS was represented with descriptive summary statistics; Kaplan-Meier method was used for evaluation.
# [3] = Erdafitinib 8 mg (QD), N = 11
# [4] = snapshot as of 20 Mar. 2018, 8 mg qd
compound,measurement,setting,value
"COc1cc(OC)cc(N(CCNC(C)C)c2ccc3ncc(-c4cnn(C)c4)nc3c2)c1 [erdafitinib, N-(3,5-dimethoxy-phenyl)-N′-(1-methylethyl)-N-[3-(1-methyl-1H-pyrazol-4-yl)quinoxalin-6-yl]ethane-1,2-diamine]",median duration of response,"[1]; 9 mg QD or 10 mg intermittent, heavily pretreated population",11.4 months
same,median duration of response,"[1]; median follow-up 5.5 mo, 95% CI 9.9 to 12.9 mo",11.4 mo
same,Median PFS (progression free survival),"[2]; as of 20 Aug. 2018, 95% CI 1.87, NE",5.59 months
same,median duration of response (DOR),"[2]; as of 20 Aug. 2018, 95% CI 3.65, 12.16",3.94 months
same,clinical activity in patients with FGFR-aberrant advanced cholangiocarcinoma,[2]; conclusion of snapshot 20 Mar. 2018,encouraging clinical activity
same,PFS duration,[2]; one PR patient with a FGFR2-KIAA1598 fusion,5.59 months
same,FGFR alterations of participants with confirmed or unconfirmed partial response,[2]; [4],"participants with FGFR2-KIAA1598 and DTWD2-FGFR2 fusions, with ESR2-FGFR2 fusion, with FGFR2 C390>YS mutation and with FGFR2-MGEA5 fusion"
same,FGFR alterations of participants with stable disease,[2]; [4],"participants with FGFR2-BICC1 fusion, with FGFR2 fusion with SBNO2 partner, with FGFR2 N549K mutation, and with FGFR2-KIAA1598 fusion"
same,"Drug-related TEAE Nail discolouration, Any grade",[3],2 N
same,"Drug-related TEAE Nail discolouration, ≥Grade 3",[3],1 N
